Measured values taken from PMC4306915.
No constants are given. Whether binding was seen depends on the method and setting. Some binding calls cover weakened binding; strength is not graded here.

Biological target: T1, Wnt5a (UniProt P41221)
T1 sequence: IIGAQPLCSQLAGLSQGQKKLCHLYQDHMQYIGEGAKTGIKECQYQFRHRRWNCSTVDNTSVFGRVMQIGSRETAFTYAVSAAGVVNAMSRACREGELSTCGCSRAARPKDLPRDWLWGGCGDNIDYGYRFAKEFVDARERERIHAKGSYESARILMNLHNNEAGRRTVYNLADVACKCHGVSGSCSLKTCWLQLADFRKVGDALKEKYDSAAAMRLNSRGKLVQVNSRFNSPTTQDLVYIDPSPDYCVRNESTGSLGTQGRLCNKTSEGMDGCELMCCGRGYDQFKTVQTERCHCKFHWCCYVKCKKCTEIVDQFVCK
Assay: ELISA; 384 well plate coated with 1 μg/ml purified Fz2CRD-IgG (or 2 μg/ml control-IgG); 500 ng/ml Wnt5a added with 250 μg/ml anti-GST antibody (control Ab) or mAb5A16 or 10 μg/ml purified sFRP2 for 2 h at room temperature; detected with biotinylated monoclonal anti-Wnt5a antibody; both purified

binding: binds
B1: secreted frizzled-related protein2 (sFRP2) (protein, UniProt Q96HF1 25-295)
chain: LFLFGQPDFSYKRSNCKPIPANLQLCHGIEYQNMRLPNLLGHETMKEVLEQAGAWIPLVMKQCHPDTKKFLCSLFAPVCLDDLDETIQPCHSLCVQVKDRCAPVMSAFGFPWPDMLECDRFPQDNDLCIPLASSDHLLPATEEAPKVCEACKNKNDDDNDIMETLCKNDFALKIKVKEITYINRDTKIILETKSKTIYKLNGVSERDLKKSVLWLKDSLQCTCEEMNDINAPYLVMGQKQGGELVITSVKRWQKGQREFKRISRSIRKLQC
